This is an account of results in PubChem BioAssay AID445 (National Center for Advancing Translational Sciences (NCATS), 2006).

The nature of the assay: IkB Signaling. Conditions: ABC-DLBCL IkBa-CBG/CBR dual luciferase ratio (green luciferase fused to IkBa over red control in OCI-Ly3 lymphoma cells), 4 h. Put shortly: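 Luminescence ratio of IκBα-fused green versus native red beetle luciferase in OCI-Ly3 cells, 4 h post-doxycycline with compound; red signal alone, scaled from basal (0%) to zero light (-100%), flagged nonspecific or cytotoxic effects.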
[1] abbreviates: measured here: control luc red channel unless noted.

Several values for one entry are separate records, joined by “and”; a condition that tells them apart may be missing. Equal entries are not always repeated. The list shows a part of the results. The main result of the screen is listed elsewhere. These columns were measured beside it and carry no call. Most of these compounds were active or inconclusive in the main read-out, so they are no random draw. Words in brackets tell the shape of the fitted curve; partial curves, single points and poor fits give uncertain potencies.

Consider `Cn1c(CN2CCCCC2)nc2cc(NC(=O)c3ccc(Cl)cc3)ccc21`, for which the half-maximal activity concentration (AC50) (usually the concentration at which the activity in the assay is half-maximal) under setting [1] was 1.58 µM [falling, full curve]. For the compound `Cc1ccc(-n2c(C)cc(C3N=C(N)Nc4nc5ccccc5n43)c2C)c(C)c1` (stereo unspecified), the AC50 by setting is: (measured here: IkB-luc green channel) 39.8 µM [falling, single point]; (measured here: control luc red channel) 31.6 µM [falling, single point].

`c1cc2c(cc1-c1cnc3n1CCC3)OCCO2`: under setting [1], the AC50 was 15.8 µM [falling, partial curve].

`Nc1cc(N)c(OCC(F)(F)F)cc1OCC(F)(F)F`: the AC50 under setting [1] was 3.98 µM [rising, partial curve] [measured here: IkB-luc green channel]. On to `Cc1nn(CC(=O)NCc2ccccc2Br)c(=O)c2cc3occc3n12`, for which the AC50 under setting [1] is 0.0126 µM [rising, full curve, poor fit].

Regarding `CNc1oc(/C=C/c2cc(OC)c(OC)c(OC)c2)nc1C#N`, under setting [1], the AC50 is 25.1 µM [falling, single point]. As for `CCOc1ccccc1NC(=O)CSc1nccn1Cc1ccc(F)cc1`, the AC50 under setting [1] was 15.8 µM [rising, partial curve].

`Cc1ccc(C(=O)Nc2ccc(F)cc2)cc1S(=O)(=O)N1CCOCC1`: under setting [1], the half-maximal activity concentration (AC50) is 39.8 µM [falling, partial curve]. Regarding `Cc1ccccc1CNC(=O)c1ccc2c(c1)N(Cc1ccccc1)CCS2`, under setting [1], the AC50 was 15.8 µM [falling, partial curve]. In the case of `Cc1ccc2[nH]c3c(NCc4ccco4)ncnc3c2c1`, the AC50 under setting [1] was 10 µM [falling, partial curve].

With `O=C(CCCn1c(=S)[nH]c2cc3c(cc2c1=O)OCO3)N1CCc2ccccc2C1`, under setting [1], the AC50 was 20 µM [falling, partial curve]. The same measure, in the same setting: then `O=C(CCCn1c(=O)c2cccn2c2cccnc21)Nc1ccccc1Br`, with 1.26 µM [rising, full curve]. Turning to `CCOC(=O)c1c(NC(=O)/C=C/c2ccc(OCC)cc2)sc2c1CCC2`, the AC50 under setting [1] is 20 µM [rising, partial curve].

On to `Cc1ccc(CNC(=O)Cn2cc(C(=O)c3ccc(Cl)cc3)c(=O)c3ccc(C)nc32)cc1`, for which the AC50 under setting [1] is 39.8 µM [falling, partial curve].

As for `CC(=O)c1cccc(NC(=O)c2cc(-c3ccc4c(c3)OCCO4)on2)c1`, the AC50 under setting [1] is 3.98 µM [falling, full curve]. On the same count and under the same terms, under `COC(=O)c1ccccc1NC(=O)CCCS(=O)(=O)c1nc(-c2ccccc2OC)cc(C(F)(F)F)n1` stands 3.16 µM [falling, full curve]; under `COC(=O)c1ccc(NC(=O)c2c(NCc3ccc(OC)c(OC)c3)sc3c2CCCC3)cc1`, 5.01 µM [falling, full curve]. On the same count and under the same terms, under `CCOC(=O)c1cccc(NC(=O)C2CCN(S(=O)(=O)c3cccs3)CC2)c1` stands 39.8 µM [falling, single point]; under `Cc1cc(NC(=O)CSc2ncc(C(=O)Nc3ccccc3)c(=O)n2C)no1`, 31.6 µM [rising, single point] [measured here: IkB-luc green channel]; under `Cc1cc(C(=O)CSc2nnc(C3COc4ccccc4O3)n2C)c(C)n1-c1ccc(F)cc1` (stereo unspecified), 25.1 µM [falling, partial curve]. Turning to `COc1ccccc1CNC(=O)C(Cc1ccccc1)NS(=O)(=O)c1ccc2c(c1)CCN2C(C)=O` (stereo unspecified), the AC50 under setting [1] was 12.6 µM [falling, single point]. For `Cc1ccccc1NC(=O)c1ccc(CNS(=O)(=O)c2ccc3c(c2)C(C)(C)C(=O)N3C)cc1`, under setting [1], the AC50 was 3.16 µM [falling, single point]. On the same count and under the same terms, then `O=C(NCc1ccccn1)c1nn(-c2ccccc2Cl)nc1CO`, with 25.1 µM [falling, partial curve, poor fit]. On the same count and under the same terms, under `Cc1nc2sc3c(c2c2nnc(SCC(=O)NCc4ccco4)n12)CCCC3` stands 31.6 µM [falling, partial curve]; under `CCN(CC)C(=O)C1=C(C)Nc2nc3ccccc3n2C1c1ccc(Cl)cc1` (stereo unspecified), 31.6 µM [falling, partial curve]; under `Cc1ccc(Cl)cc1N(C)C(=O)c1cc2ccc3cccnc3c2[nH]1`, 25.1 µM [falling, single point]. On the same count and under the same terms, under `CC(=O)OC/C=C(C)/C=C/C=C(C)/C=C/C1=C(C)CCCC1(C)C` stands 39.8 µM [rising, partial curve, poor fit] [measured here: IkB-luc green channel]; under `CCCCOc1ccc(C(=O)NCCc2csc3nc(-c4ccccc4F)nn23)cc1`, 25.1 µM [falling, partial curve]. `CCOc1ccccc1C(=O)NCC(c1ccc(N(C)C)cc1)N1CCCC1` (stereo unspecified): under setting [1], the AC50 was 20 µM [falling, partial curve]. On the same count and under the same terms, then `Clc1ccc2c(c1)N=C(N1CCNCC1)c1ccccc1N2`, with 39.8 µM [falling, partial curve]. The same measure, in the same setting: under `CCn1c(CN2CCN(C)CC2)nc2cc(NC(=O)c3cc(OC)c(OC)c(OC)c3)ccc21` stands 39.8 µM [falling, single point]. For the compound `CCOc1ccccc1C1Nc2ccccc2-c2nnc(SCc3ccccc3)nc2O1` (stereo unspecified), the AC50 under setting [1] was 12.6 µM [falling, partial curve]. Same read-out and setting: then `C=CCn1c(SCC(=O)c2ccc(OC)cc2)nnc1C(C)NC(=O)c1cccs1` (stereo unspecified), with 12.6 µM [falling, partial curve]; and `COCCCn1c(=N)c(C(=O)NC2CCCC2)cc2c(=O)n3cc(C)ccc3nc21`, with 39.8 µM [falling, single point]; and `COc1ccc(CCCc2nnc(SCC(=O)Nc3ccc(Cl)cc3)o2)cc1`, with 3.98 µM [falling, full curve].

Turning to `CCc1ccccc1NC(=O)c1ccc2[nH]c(C)c(C)c2c1`, the AC50 under setting [1] was 2.51 µM [rising, full curve, poor fit]. Regarding `COc1ccc(-c2cc(-c3cccs3)c(C#N)c(SCC(=O)NCc3ccco3)n2)cc1`, under setting [1], the AC50 was 2 µM [rising, full curve]. On the same count and under the same terms, under `Cc1ccccc1CN1C(=O)C(O)(CC(=O)c2cccc(Br)c2)c2ccccc21` (stereo unspecified) stands 12.6 µM [falling, partial curve]. The same measure, in the same setting: under `COC(=O)c1[nH]c2cccc(OC)c2c1NC(=O)CCN1CCN(c2cccc(Cl)c2)CC1` stands 15.8 µM [falling, partial curve]. The same measure, in the same setting: under `CCOc1ccccc1N(CC)C(=O)c1cc2c(=O)n(CC)c3ccccc3c2s1` stands 3.16 µM [falling, full curve]; under `Cc1ccc(CN(C(=O)c2ccc([N+](=O)[O-])cc2)c2ccccn2)cc1`, 39.8 µM [falling, single point]; under `Cc1ccc(OCC(=O)Nc2ccccc2C(=O)OCc2cc(=O)n3c(C)csc3n2)cc1`, 3.16 µM [falling, full curve]. As for `CC(C(=O)NCc1ccc(Cl)cc1)n1ccc2cc(S(=O)(=O)N3CCCC3)ccc21` (stereo unspecified), under setting [1], the AC50 was 25.1 µM [falling, partial curve]. Turning to `Cc1cc(C)cc(NS(=O)(=O)c2ccc3[nH]cc(C(=O)NCc4ccco4)c(=O)c3c2)c1`, the AC50 under setting [1] is 2.51 µM [falling, partial curve] and 3.16 µM [falling, partial curve].

Regarding `CN(c1ccccc1)S(=O)(=O)c1cc(C(=O)N2CCN(c3ccccn3)CC2)ccc1Cl`, the AC50 under setting [1] is 15.8 µM [falling, partial curve]. Same read-out and setting: under `CCC(O)c1nc2ccccc2n1CCOc1cc(C)cc(C)c1` (stereo unspecified) stands 0.501 µM [rising, partial curve]. On to `Cc1ccc(-c2cc(C(=O)Nc3cc(C)on3)c3ccccc3n2)c(C)c1`, for which the AC50 under setting [1] was 10 µM [falling, partial curve]. Still for that read-out and setting: then `CCOc1ccccc1C(=O)Nc1cc2c(cc1N1CCCCC1)n(C)c(=O)n2C`, with 39.8 µM [falling, single point]. Take `COc1ccc(NC(=O)CSc2n[nH]c(-c3ccccc3)n2)cc1Cl`: the AC50 under setting [1] is 0.1 µM [falling, partial curve]. On to `Cc1cc(C)nc(N(C#N)CN2C(=O)c3ccccc3S2(=O)=O)n1`, for which, under setting [1], the half-maximal activity concentration (AC50) is 3.98 µM [rising, partial curve] [measured here: IkB-luc green channel].

For the compound `OC(CCN1CCOCC1)(c1ccc(Cl)cc1)C1CCCCC1` (stereo unspecified), the AC50 under setting [1] is 31.6 µM [falling, single point] [measured here: IkB-luc green channel]. The same measure, in the same setting: under `Cc1cccc(NC(=O)C2CCCN(S(=O)(=O)c3cccc4cccnc34)C2)c1` (stereo unspecified) stands 20 µM [falling, partial curve]; under `CC(C)Oc1cccc(-n2c(CCc3c[nH]c4ccc(Br)cc34)nc3ccccc3c2=O)c1`, 15.8 µM [falling, partial curve]; under `COC(=O)c1ccc(NC(=O)C2CCN(S(=O)(=O)c3ccc4c(c3)CCCN4C(C)=O)CC2)cc1`, 0.1 µM [falling, full curve, poor fit]. Same read-out and setting: under `COc1cc(NC(=O)CSc2nc3nc(C)c(Cc4ccccc4)c(C)n3n2)cc(OC)c1OC` stands 25.1 µM [falling, partial curve]; under `CCc1nnc2n1N(C(C)=O)C(c1ccc(C(C)(C)C)cc1)=C(C(C)=O)S2`, 20 µM [falling, partial curve]; under `Cc1ccc(NC(=O)NC(=O)CN2C(=O)NC3(CCc4ccccc43)C2=O)c(C)c1` (stereo unspecified), 25.1 µM [falling, partial curve]. As for `CCOC(=O)c1cc2c(=O)n3ccccc3nc2n(CC2CCCO2)c1=NC(=O)c1cc(C)cc(C)c1` (stereo unspecified), under setting [1], the AC50 is 3.98 µM [falling, full curve]. The same measure, in the same setting: under `CCOc1cc(NC(=O)c2ccco2)c(OCC)cc1NC(=O)c1cc(OC)c(OC)c(OC)c1` stands 0.794 µM [falling, full curve, poor fit]. Consider `Cc1[nH]c2ccccc2c1C1(O)C(=O)N(Cc2ccc(Cl)cc2)c2ccccc21` (stereo unspecified), for which, under setting [1], the AC50 is 25.1 µM [falling, partial curve].
